System: THP1 cells
Test: Differential gene expression analysis by RNA-seq in high glucose treated THP1 cells
Assay type: cell-based, human
Settings: THP1, HG 25 mM 72 hr with vs without C1 5 uM; fold change >1.5, p<0.05
Experimental: FIG. 17. Hierarchical Clustering using differential expressed genes. Differential expression was calculated using these counts with edgeR (5, 6) version 3.0. After correcting for differences in library sizes, a fold change of >1.5 and a p-value of <0.05 were applied to select expressed genes. The corrected measures of the latter were further processed using Cluster3.0 (7) to generate a heatmap using Java TreeView. C=HG treated THP-1 cells (A, B are replicates); T=HG+C1 5 uM (C, D are replicates). […]
RNA-seq: Sequence alignment and gene counts. RNA-Seq reads were trimmed to remove sequencing adapters using Trimmomatic (Bolger et al., 2014), and polyA tails using FASTP (Chen et al., 2018). The processed reads were mapped to the human genome (hg19) using STAR software (v. 020201) (Dobin et al., 2013). […]
Differential gene expression analyses by RNA-seq. […] Differential expression analysis was conducted by adjusting read counts to normalized expression values using the TMM normalization method in edgeR package (Robinson et al., 2010). […] Next, Raw counts for each gene in the GENCODE coding gene annotation (hg19) were measured using HTseq (Anders and Huber, 2010) with an argument of “-r pos -s reserve”. Differential expression was calculated using these counts with edgeR (5, 6) version 3.0. […]

CC(C)C(C(=O)O)N1C(=O)c2ccncc2C1=O (centres unmarked) [Compound C1, 2-(1,3-dioxo-1,3-dihydro-2H-pyrrolo[3,4-c]pyridin-2-yl)-3-methylbutanoic acid]
number of down-regulated genes: 24 | number of up-regulated genes: 20

Source: patent US11974990B2, “TXNIP-TRX complex inhibitors and methods of using the same” (City of Hope, priority 2018, dated 2024)
